Reference: patent US4490364A (The Salk Institute for Biological Studies, priority 1983, dated 1984)

Test: general procedure: Boc solid-phase peptide synthesis; MBHA resin; DCC
Settings: whole synthesis, scale 2.4 mmoles

Q: For “PEPTIDE1{[ac].[Tyr(SO3H)].M.[dA].W.M.D.F.[am]}$$$$V2.0”, which crude mass is on record?
A: 2.0 g

Strings that start with PEPTIDE1 are HELM notation: dots part the residues, brackets hold end groups and non-standard residues.
